Reference: PubChem BioAssay AID624297 (National Center for Advancing Translational Sciences (NCATS), 2012)
Out of some 340,000 compounds screened, about 6,200 (1.8%) were called active. Listed are the inconclusive results; actives and inactives stand elsewhere. The call rests on the fitted dose curve; in most records, active means well fitted activation curve with a large enough effect; inconclusive means small, poorly fitted or top-dose-only effect; inactive means no such curve, though single readings can be large or run the other way.

test: A quantitative high throughput screen for small molecules that induce DNA re-replication in SW480 colon adenocarcinoma cells.; further: nearly all actives have a fitted effect of over 55% in size; conditions: Hoechst DNA content imaging, 48 h
Potency means the concentration at half of the fitted maximal effect.

Compound	Potency
O=[N+]([O-])c1cc([N+](=O)[O-])c(-c2cnn(-c3ccccc3)c2)c([N+](=O)[O-])c1	inconclusive: 9.2 µM
CC1=C2N=C(C=C3N=C(C(C)=C4[N-][C@@](C)([C@@H]5N=C1[C@](C)(CCC(=O)NC[C@@H](C)OP(=O)([O-])O[C@H]1[C@@H](O)[C@@H](n6cnc7cc(C)c(C)cc76)O[C@@H]1CO)[C@H]5CC(N)=O)[C@@](C)(CC(N)=O)[C@@H]4CCC(N)=O)[C@@](C)(CC(N)=O)[C@@H]3CCC(N)=O)C(C)(C)[C@@H]2CCC(N)=O.[C-]#N.[Co+3]	inconclusive: 23.1 µM
CCOC(=O)c1ccc(NP(C)(=O)Oc2cc(C)cc(C)c2)cc1 (stereo not drawn)	inconclusive: 29.1 µM
COc1ccccc1OP(C)(=O)Nc1cc(Cl)ccc1C (stereo not drawn)	inconclusive: 29.1 µM
O=[N+]([O-])c1cc([N+](=O)[O-])c(Nc2cccnc2)c([N+](=O)[O-])c1	inconclusive: 3.26 µM
CC(C)(C)c1ccc(OP(C)(=O)Nc2ccc(SC(F)(F)F)cc2)cc1 (stereo not drawn)	inconclusive: 18.4 µM
O=[N+]([O-])c1ccc2c(c1)C=Nc1ccccc1O2	inconclusive: 18.4 µM
CN(C)C(=O)c1c([N+](=O)[O-])cc([N+](=O)[O-])cc1[N+](=O)[O-]	inconclusive: 9.2 µM
CCCCCCCCCCCCCCCC1C[N+](C)(C)CCOP(C)(=O)O1 (stereo not drawn)	inconclusive: 18.4 µM
O=[N+]([O-])c1cc([N+](=O)[O-])c(Nc2ccccn2)c([N+](=O)[O-])c1	inconclusive: 3.26 µM
CP(=O)(Nc1ccccc1F)Oc1ccccc1 (stereo not drawn)	inconclusive: 0.116 µM
Cc1cc(-c2cccc3ccccc23)c(C)cn1.O=[N+]([O-])c1cc([N+](=O)[O-])c(O)c([N+](=O)[O-])c1	inconclusive: 29.1 µM
COc1ccc(NP(C)(=O)Oc2ccccc2OC)cc1 (stereo not drawn)	inconclusive: 29.1 µM
